Reference: patent US20060240015A1
Numbering of substitutions follows the chain as printed. No constants are given. Whether binding was seen depends on the method and setting. Some results given as binding are weak or reduced against the parent protein; the word gives no strength.

Sequences of proteins named here, by UniProt entry; tags and fusion partners are left off. Residues count along the entry.
UniProt P05019, residues 49-118: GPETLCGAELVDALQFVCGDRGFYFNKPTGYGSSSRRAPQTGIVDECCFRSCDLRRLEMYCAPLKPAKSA
UniProt P01344, residues 25-91: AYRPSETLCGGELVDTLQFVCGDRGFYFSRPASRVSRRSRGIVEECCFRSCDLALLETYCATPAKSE

How the values were obtained:
[1] = biological target: human insulin-like growth factor-I (human) (UniProt P05019); assay: summary of binding ELISA and Biacore
[2] = biological target: human insulin-like growth factor-I (human) (UniProt P05019); assay: SPR (Biacore 2000)
[3] = biological target: human insulin-like growth factor-II (human) (UniProt P01344); assay: SPR (Biacore 2000)
[4] = biological target: human insulin-like growth factor-II (human) (UniProt P01344); assay: summary of Biacore
[5] = biological target: human insulin-like growth factor-I (human) (UniProt P05019); assay: binding ELISA on coated mBSA-hIGF-I

Measured: binding

B1: anti-hIGF CDR-grafted antibody QGAR/PLDFT (antibody, human IgG1, V domains shown)
VH: EVQLVESGGGVVQPGRSLRLSCAASGFTFSNYYMTWVRQAPTKGLEWVAYISSGGGSTYYRDSVKGRFTISRDNSKNTLYLQMNSLRAEDTAVYYCTTEDYGYWFAYWGQGTLVTVSS
VL: DIVMTQSPDSLAVSLGERATINCRASSSVSYMHWYQQKPGQSPKPLIYGTSKLASGVPDRFSGSGSGTSYSLTISSLQAEDVAVYYCLQRSSYPPTFGQGTKVEIK
binds: all assays above

B2: anti-hIGF CDR-grafted antibody QGAR/PLLDFT (antibody, human IgG1, V domains shown)
VH: B1 VH
VL: B1 VL with L46W
binds: all assays above
